Laboratory results as given in patent publication US12121500B2, “Inhibitors of Bunyaviridae and uses thereof” (priority 2020, dated 2024).

Experiments:
HepDES19 = experiment: Cytotoxicity in HepDES19 cells, MTS assay; conditions: therapeutic index CC50/EC50, HepDES19 cells after three days
Vero cells = experiment: Quantitative cytotoxicity in Vero cells, crystal violet staining of EC50 plates; conditions: therapeutic index CC50/EC50, Vero cells after one day

| SMILES | TI HepDES19 (HepDES19) | TI Vero (Vero cells) |
| --- | --- | --- |
| Cc1cc(O)c(=O)c(O)cc1-c1ccccc1 [Compound 113] | 4.6 | 24.3 |
| CSc1cccc(O)c(=O)c1O [Compound 385] | 4.0 | 9.9 |
| Cc1cc(O)c(=O)c(O)cc1C(=O)Nc1ccccc1 [Compound 389] | 3.0 | 28.4 |
| CC(=O)c1c(C)cc(O)c(=O)c(O)c1Br [Compound 320] | 2.5 | 6.0 |
| Cc1cc(O)c(=O)c(O)cc1C(=O)c1cccc(Br)c1 [Compound 359] | 3.8 | 33.3 |
| Cc1cc(O)c(=O)c(O)cc1C(=O)NCc1ccc(-c2ccccc2)cc1 [Compound 539] | <1.0 | 16.1 |
| COC(=O)c1c(C)cc(O)c(=O)c(O)c1Br [Compound 335] | 6.0 | 2.9 |
| C/C(=N\c1cccc(Oc2ccccc2)c1)c1c(C)cc(=O)n(O)c1O [Compound 515] | 2.9 | 4.9 |
| Cc1cc(O)c(=O)c(O)cc1C(=O)NCc1ccccc1 [Compound 388] | 2.2 | 26.6 |
| Cc1cc(O)c(=O)c(O)c(O)c1C(=O)c1ccc(-c2ccccc2)cc1 [Compound 362] | 2.1 | 29.9 |
| CC(=O)c1c(C)cc(O)c(=O)c(O)c1Cl [Compound 368] | 1.2 | 9.8 |
| O=c1c(O)ccc(-c2ccco2)cc1O [Compound 265] | 1.7 | 16.2 |
| Cc1cc(O)c(=O)c(O)cc1C(=O)N1CCCCC1 [Compound 390] | 2.5 | 21 |
| C/C(=N\c1ccc(C(F)(F)F)cc1)c1c(C)cc(=O)n(O)c1O [Compound 517] | <1.0 | 1.0 |
| CC[C@H](C)[C@H](NC(=O)OCC1c2ccccc2-c2ccccc21)C(=O)Sc1cccccc1=O [Compound 686] | <1.0 | 1.0 |
| CC(C)c1ccc(O)c(=O)c(O)c1 [Compound 46, β-thujaplicinol] | 1.8 | 18.1 |
| Cc1cc(O)c(=O)c(O)cc1C(=O)c1ccc(-c2ccncc2)cc1 [Compound 260] | 1.4 | 7.9 |
| Cc1ccc(O)c(=O)c(O)c1 [Compound 210] | 4.9 | 19.4 |
| Cc1ccc(Sc2cccc(O)c(=O)c2O)cc1 [Compound 838] | 1.5 | 23.6 |
| Cc1cc(O)c(=O)c(O)cc1C(=O)c1ccc(Br)cc1 [Compound 358] | 1.4 | 27.8 |

| SMILES | TI HepDES19 (HepDES19) | TI Vero (Vero cells) |
| --- | --- | --- |
| C/C(=N\c1ccc(Cl)c(Cl)c1)c1c(C)cc(O)n(O)c1=O [Compound 670] | 4.9 | 8.6 |
| CC(=O)c1c(C)cc(O)c(=O)c(O)c1-c1ccccc1 [Compound 330] | 5.9 | 31.6 |
| CC(=O)c1c(C)cc(O)c(=O)c(O)c1-c1cccc2ccccc12 [Compound 331] | 2.3 | 5.1 |
| Cc1cc(O)c(=O)c(O)cc1C(=O)NC(CCC(=O)OC(C)(C)C)C(=O)OC(C)(C)C (stereo not drawn) [Compound 867] | <1.0 | 13.8 |
| C/C(=N\c1ccccc1Cl)c1c(C)cc(O)n(O)c1=O [Compound 668] | 4.0 | 6.2 |
| Cc1cc(O)c(=O)c(O)cc1C(=O)c1cccs1 [Compound 308] | 47.8 | 402 |
| CCCCCCSc1cccc(O)c(=O)c1O [Compound 840] | <1.0 | 3.8 |
| Cc1cc(O)c(=O)c(O)cc1C(=O)c1ccccc1O [Compound 311] | 2.7 | 21.6 |
| Cc1cc(O)c(=O)c(O)cc1C(=O)N1CCN(C(c2ccc(F)cc2)c2ccc(F)cc2)CC1 [Compound 1017] | <1.0 | 6.8 |
| Cc1cc(O)c(=O)c(O)cc1C(=O)c1ccccc1 [Compound 111] | 1.9 | 13.2 |
| Cc1ccc(/C=C/C(=O)c2ccccc(=O)c2O)cc1 [Compound 340] | 0.7 | 2.6 |
| O=C1C=CC(=O)c2ccccc21 [Compound 327] | 0.5 | 1.1 |
| CCc1cccc(N=C(C)c2c(C)cc(=O)n(O)c2O)c1 [Compound 518] | 4.6 | 6.0 |
| CC1=CC(O)N(O)C(O)=C1/C(C)=N/c1ccccc1N (stereo not drawn) [Compound 208] | <1.0 | <1.0 |
| O=C(Cc1ccccc1)Sc1cccccc1=O [Compound 680] | <1.0 | 1.0 |
| CCCCSc1ccc(SCCCC)c(O)c(=O)c1O [Compound 694] | <1.0 | 6.0 |
| Cc1cc(O)c(=O)c(O)cc1C(=O)C1CCCCC1 [Compound 120] | 2.7 | 16.0 |
| Cc1cc(O)c(=O)c(O)cc1C(=O)c1ccc(-c2ccccc2)cc1 [Compound 118] | 1.5 | 22.5 |
| COC(=O)c1c(C)cc(O)c(=O)c(O)c1O [Compound 196] | 0.3 | 10.5 |
